Where a chain is given by its changes, count along the chain named. No constants are given. Whether binding was seen depends on the method and setting. Binding calls can cover weak binding; strength is not graded here.
B1: 042c (antibody, V domains shown)
VH: QIQLVQSGPELKKPGETVKISCRASGYTFTTYGMSWVKQAPGKGLRWMGWINTYSGVSTCADDFKGRFAFSLETSATTAYLQIHNLTNEDTATYFCARDPHSYGNSPAWFPYWGQGTLVTVSA
VL: DIVMTQSQKFMSTTIRDRVSITCKASQNVGISVAWYQQKSGQSPKLLIYSASNRYTGVPDRFTGSGSGTDFTLTISNMQSEDLADYFCQQYSSYPLTFGSGTKLAIK
B2: 073c (antibody, V domains shown)
VH: QIQLVQSGPELKKPGETVKISCKASGYTFTTYGMSWVKQAPGKGLKWMVWINTYSGVPTYADDFKGRFAFSLETSASTSYLQINNLKNEDTATYFCARDPHYYGSSPAWFVYWGQGTLVTVSA
VL: B1 VL with R16G, K24E, N28I, S32A, S40P, D85N, S93A, L96F, A105E, I106V
B3: 015c (antibody, V domains shown)
VH: EVQLQQSGVEVVQPGASVKLSCTASGFNIEAYYMHWVKQRTEQGLEWIGRIDPEDGESKYAPKFQGKATMTADTSSSTAYLQLSSLTSDDTAVYYCVRGSYEYWGQGTTLTVSS
VL: QIVLTQSPAIMSASPGEKVTLTCSASSSVSSSYLYWYQQKPGSSPKLWIYSTSNLASGVPPRFSGSGSGTSYSLTISSMQAEDAASYFCYQWSSYPYTFGGGTKLEIK
B4: 025c (antibody, V domains shown)
VH: EVQLQQSGAELVKPGASVKLSCTASGFNIKDYYMHWVKQRTEQGLEWIGRIDPEDGETKYAPKFQGKATITADTSSNTAYLQLSSLTSEDTAVYYCDRGLAYWGQGTLVTVSA
VL: B3 VL with P61A, Q80E, Y90H
B5: hu025.021 (antibody, V domains shown)
VH: EVQLVQSGAEVKKPGATVKISCKVSGFNIKDYYMHWVQQAPGKGLEWIGRIDPEDAETKYAPKFQGRVTITADTSTNTAYMELSSLRSEDTAVYYCDRGLAYWGQGTLVTVSS
VL: EIVLTQSPATLSLSPGERATLSCSASSSVSSSYLYWYQQKPGQAPKLWIYSTSNLASGIPARFSGSGSGTDYTLTISSLEPEDFAVYYCHQWSSYPYTFGQGTKLEIK
B6: hu025.023 (antibody, V domains shown)
VH: B5 VH
VL: B5 VL with Y72F
B7: hu025.033 (antibody, V domains shown)
VH: B5 VH with N77D
VL: B5 VL
B8: hu025.059 (antibody, V domains shown)
VH: B5 VH with V24A
VL: B5 VL
B9: 071c (antibody, V domains shown)
VH: B2 VH with K65Q, K87R, S105T, V111A
VL: B1 VL with R16G, S20I, N28I, S32A, S40P, Y55F, S93T, L96F, A105E
B10: hu025.060 (antibody, V domains shown)
VH: B5 VH with V24A
VL: B5 VL with Y72F
B11: hu1H9G4 (antibody, V domains shown)
VH: QVQLVQSGAEVKKPGASVKVSCKASGYTFTSYWITWVKQAPGQGLEWIGDIYPGSGSTNHIEKFKSKATLTVDTSISTAYMELSRLRSDDTAVYYCATGYGSSYGYFDYWGQGTLVTVSS
VL: DIQMTQSPSSLSASVGDRVTITCRASENIYSYLAWYQQKPGKAPKLLIYTAKTLAEGVPSRFSGSGSGTDFTLTISSLQPEDFATYYCQHQYGPPFTFGQGTKLELK
B12: 059c (antibody, V domains shown)
VH: QVQLQQSGPELVKPGASVKMSCKASGYTFSEYVLSWVKQRTGQGLEWIGEIYPGTITTYYNEKFKGKATLTADKSSNTAYIQLTSLTSEDSAVYFCGRFYDYDGGWFAYWGQGTLLTVSA
VL: ENVLTQSPEKMAVSLGQKVTMTCSASSSVSSSDLHWYQQKSGASPKPLIHGTSNLASGVPARFSGSGSGTSYSLTISSVEAEDAATYYCQQWSGYPWTFGGGTNLEIK
B13: 005c (antibody, V domains shown)
VH: EVKLVESGGGLVQPGGSLSLSCAASGFTFTDYYMSWVRQPPGKALEWLGFIKNEANGYTTESSASVKGRFTISRDNSQSILYLQMNALRAEDSATYYCARYDYYGSNYNWYFDAWGTGTTVTVSS
VL: DIVMTQSQKFMSPSVGDRVSITCKASQNVRTAVAWYQQKPGQSPKVLIHLASKRHTGVPDRFTGSGSGTDFTLTISNVQSEDLADYFCLQHWIHPLTFGAGTKLELK

Chains of the proteins cited; added tags and fusions are not shown. Lines headed by an entry give the natural chain unless they say otherwise; changes in a name come on top.
UniProt P78324: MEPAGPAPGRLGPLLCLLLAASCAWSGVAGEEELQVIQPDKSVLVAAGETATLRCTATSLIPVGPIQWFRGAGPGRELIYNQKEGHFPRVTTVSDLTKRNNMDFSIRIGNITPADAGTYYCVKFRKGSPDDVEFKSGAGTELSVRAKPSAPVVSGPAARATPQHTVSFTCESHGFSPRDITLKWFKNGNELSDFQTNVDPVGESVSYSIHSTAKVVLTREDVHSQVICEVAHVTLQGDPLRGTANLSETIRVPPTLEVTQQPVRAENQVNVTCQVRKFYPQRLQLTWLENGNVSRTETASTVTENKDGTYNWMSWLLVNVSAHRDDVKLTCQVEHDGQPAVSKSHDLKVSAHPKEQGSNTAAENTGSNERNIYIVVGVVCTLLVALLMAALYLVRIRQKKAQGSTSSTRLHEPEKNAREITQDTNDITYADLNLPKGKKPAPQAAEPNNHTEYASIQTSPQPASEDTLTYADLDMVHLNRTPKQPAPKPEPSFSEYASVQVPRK

target: cyno SIRPγ ECD recombinant protein (cyno); assay: ELISA, cyno SIRPγ ECD (FIG. 4C)

binding, binds:
B1, B2

target: human SIRPα v2 expressed on cells (CHOK1 stable line KYinno KC-1720) (human) (UniProt P78324); assay: FACS, CHOK1-human SIRPα v2 cells

binding, binds:
B3, B1, B4, B5, B6, B7, B8, B9, B10, B11, B2, B12, B13

target: human SIRPα v2 expressed on cells (CHOK1 stable line KYinno KC-1720) (human) (UniProt P78324); assay: FACS screening of humanized variants

binding, binds:
B5, B6, B7, B8, B10

target: cyno SIRPγ ECD recombinant protein (cyno); assay: ELISA, recombinant cyno SIRPγ ECD

binding, binds:
B1, B4, B11, B2

target: human SIRPα v2 expressed on cells (CHOK1 stable line KYinno KC-1720) (human) (UniProt P78324); assay: FACS, CHOK1 cells stably expressing human SIRPα v2

binding, binds:
B3, B1, B4, B5, B6, B7, B8, B9, B10, B11, B2, B12, B13

target: human SIRPα v2 ECD recombinant protein (tag not given) (human); assay: competitive ELISA, coated human SIRPα v2 ECD, blocked ligand mFc tagged human CD47 ECD

binding, binds:
B3, B1, B4, B5, B6, B7, B8, B9, B10, B11, B2, B12

target: human SIRPα v2 expressed on cells (CHOK1 stable line KYinno KC-1720) (human) (UniProt P78324); assay: competitive FACS, CHOK1 cells expressing human SIRPα v2, blocked ligand mFc tagged human CD47 ECD

binding, binds:
B4, B6, B10, B11

Reference: patent US20250270315A1
